Laboratory results: PubChem BioAssay AID504793 (Drosophila RNAi Screening Center, 2011)

Assay: 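Whole-genome screen for parts of the DNA damage checkpoint at G2/M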 (primary screen)
Cell system: Drosophila S2R+ cells
Reagents: long dsRNA against Drosophila genes, about 0.25 µg dsRNA per well
Timing: 4 days of dsRNA, then 4 hours of drug before read-out
Conditions: doxorubicin 0.5 µM for 4 hours to cause double-strand breaks, in cells also given a low, harmless dose of dsRNA against nbs to sensitise the assay
Measured: 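Per-well count of mitotic cells stained for phospho-histone H3 after doxorubicin exposure, used as mitotic index; counts are raw and not normalised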
Reading the numbers: mitotic cells: higher = more cells in mitosis, weaker G2 arrest
Rule for the call: 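a call needs confirmation in secondary tests, with other dsRNAs and a check of mitotic timing without damage, not just a high primary count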
Calls: active = confirmed in follow-up tests; inactive = not confirmed
The deposit covers about 23,000 reagents; shown is an unselected part of those that have a named target and a result. Of all reagents, 62 (0.27%) got an active call. 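Calls come from follow-up tests whose scores are not deposited, so confirmed genes may have low counts here; counts are not normalised per plate.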 Raw values are not corrected between plates. Names joined by + are all predicted targets of the reagent.

Target gene	DRSC id	mitotic cells, replicate 1	Outcome
Dgkepsilon (GeneID 36408)	DRSC07399	7	inactive
CG6282 (GeneID 38985)	DRSC10616	7	inactive
CG6282 (GeneID 38985)	DRSC29524	3	inactive
wrapper (GeneID 37555)	DRSC04723	6	inactive
Alp10 (GeneID 38632)	DRSC09749	3	inactive
Alp10 (GeneID 38632)	DRSC29230	9	inactive
CG13021 (GeneID 31323)	DRSC17893	7	inactive
CG5114 (GeneID 39624)	DRSC10482	4	inactive
CG9101 (GeneID 32452)	DRSC20152	11	inactive
CG9101 (GeneID 32452)	DRSC27575	7	inactive
Pka-C2 (GeneID 43644)	DRSC16790	11	inactive
Pka-C2 (GeneID 43644)	DRSC23310	11	inactive
Pka-C2 (GeneID 43644)	DRSC29076	3	inactive
CG9775 (GeneID 40576)	DRSC12330	4	inactive
CG9775 (GeneID 40576)	DRSC22667	15	inactive
Ggamma1 (GeneID 35881)	DRSC07435	10	inactive
CG31952 (GeneID 326179)	DRSC00428	2	inactive
CG31952 (GeneID 326179)	DRSC21997	4	inactive
CG31952 (GeneID 326179)	DRSC26442	16	inactive
Fa2h (GeneID 35670)	DRSC06608	2	inactive
Fa2h (GeneID 35670)	DRSC06609	4	inactive
Mic26-27 (GeneID 41959)	DRSC15913	2	inactive
Alg10 (GeneID 326193)	DRSC10892	2	inactive
Lcp65Aa (GeneID 38709)	DRSC11209	5	inactive
Lcp65Aa (GeneID 38709)	DRSC27546	6	inactive
CG9396 (GeneID 41156)	DRSC16487	6	inactive
CG9396 (GeneID 41156)	DRSC24611	8	inactive
CG13946 (GeneID 50198)	DRSC00364	1	inactive
CG17821 (GeneID 37159)	DRSC06696	9	inactive
Polr1C (GeneID 33712)	DRSC02719	9	inactive
Lamtor1 (GeneID 40193)	DRSC10183	2	inactive
CG10764 (GeneID 36962)	DRSC06000	3	inactive
Sirt7 (GeneID 43433)	DRSC14294	5	inactive
Sirt7 (GeneID 43433)	DRSC26219	1	inactive
tai (GeneID 34242)	DRSC02673	2	inactive
slx1 (GeneID 40578)	DRSC12290	4	inactive
MKP-4 (GeneID 32963)	DRSC19567	4	inactive
MKP-4 (GeneID 32963)	DRSC27673	4	inactive
CG17994 (GeneID 35550)	DRSC04877	6	inactive
GluRIIE (GeneID 318623)	DRSC13431	10	inactive
GluRIIE (GeneID 318623)	DRSC25745	6	inactive
Obp8a (GeneID 31860)	DRSC17868	18	inactive
Obp8a (GeneID 31860)	DRSC29698	8	inactive
gl (GeneID 42210)	DRSC27242	3	inactive
snRNP-U1-C (GeneID 42274)	DRSC15804	12	inactive
ND-B14.5B (GeneID 33528)	DRSC00346	8	inactive
CG15208 (GeneID 32022)	DRSC19654	5	inactive
UBL3 (GeneID 32541)	DRSC23292	18	inactive
Noc3 (GeneID 40870)	DRSC12535	8	inactive
MED6 (GeneID 44728)	DRSC16500	8	inactive
Balat (GeneID 36417)	DRSC06852	9	inactive
l(2)efl (GeneID 37744)	DRSC04698	6	inactive
CG8892 (GeneID 33719)	DRSC03121	3	inactive
CG12224 (GeneID 41453)	DRSC14480	11	inactive
Slob (retired record) (GeneID 34039)	DRSC03436	7	inactive
Dbp73D (GeneID 39871)	DRSC11142	3	inactive
CG31441 (GeneID 326139)	DRSC15723	9	inactive
CG31441 (GeneID 326139)	DRSC27463	8	inactive
CG17376 (GeneID 59227)	DRSC21717	8	inactive
MED16 (GeneID 37535)	DRSC04506	4	inactive
MED16 (GeneID 37535)	DRSC26633	6	inactive
CG9016 (GeneID 33822)	DRSC03127	7	inactive
CG9016 (GeneID 33822)	DRSC24205	11	inactive
CG12934 (GeneID 36124)	DRSC06247	6	inactive
CG12934 (GeneID 36124)	DRSC23570	4	inactive
cyc (GeneID 40162)	DRSC11337	16	inactive
for (GeneID 44817)	DRSC00195	10	inactive
for (GeneID 44817)	DRSC00818	11	inactive
for (GeneID 44817)	DRSC25103	4	inactive
for (GeneID 44817)	DRSC36604	10	inactive
pkm (GeneID 32108)	DRSC19674		inactive
pkm (GeneID 32108)	DRSC29050	6	inactive
CG8401 (GeneID 36770)	DRSC07165	4	inactive
CG15452 (GeneID 33061)	DRSC20523	4	inactive
CG10005 (GeneID 41451)	DRSC14172	6	inactive
CG33969 (GeneID 40252)	DRSC11777	8	inactive
Srp54k (GeneID 38593)	DRSC11289	5	inactive
CG31781 (retired record) (GeneID 35023)	DRSC02431	4	inactive
CG31781 (retired record) (GeneID 35023)	DRSC02432	3	inactive
CG13481 (GeneID 39579)	DRSC10023	8	inactive
CG13481 (GeneID 39579)	DRSC29353	9	inactive
CG14423 (GeneID 31287)	DRSC17920	9	inactive
CG14423 (GeneID 31287)	DRSC23857	7	inactive
CG11857 (GeneID 43042)	DRSC14411	11	inactive
CG32847 (GeneID 318245)	DRSC22901	9	inactive
SCAR (GeneID 34519)	DRSC03426	3	inactive
GABPI (GeneID 33516)	DRSC00494	12	inactive
GABPI (GeneID 33516)	DRSC27495	7	inactive
CG13117 (GeneID 34289)	DRSC02215	1	inactive
CG13117 (GeneID 34289)	DRSC26983	5	inactive
CG10344 (GeneID 37565)	DRSC04066	8	inactive
CG10344 (GeneID 37565)	DRSC24394	4	inactive
Ntl (GeneID 34046)	DRSC03003	26	inactive
Ntl (GeneID 34046)	DRSC28007	11	inactive
Stim (GeneID 32556)	DRSC20158	5	inactive
wor (GeneID 34906)	DRSC03637	5	inactive
wor (GeneID 34906)	DRSC25651	5	inactive
pch2 (GeneID 41013)	DRSC14368	2	inactive
bonsai (GeneID 37587)	DRSC04453	6	inactive
bonsai (GeneID 37587)	DRSC24153	18	inactive
CG32188 (GeneID 317901)	DRSC09510	16	inactive
Sam-S (GeneID 48552)	DRSC00758	10	inactive
CG12576 (GeneID 33135)	DRSC20621	8	inactive
CG12576 (GeneID 33135)	DRSC26254	9	inactive
CG34148 + P5CDh2	DRSC13519	58	inactive
CG1806 (GeneID 32163)	DRSC19787	7	inactive
dpa (GeneID 35679)	DRSC07604	8	inactive
CG14635 (GeneID 31032)	DRSC17945	10	inactive
CG14635 (GeneID 31032)	DRSC29724	6	inactive
CG43316 (GeneID 36326)	DRSC06296	5	inactive
CG43316 (GeneID 36326)	DRSC06297	4	inactive
CG43316 (GeneID 36326)	DRSC28460	1	inactive
LysRS (GeneID 31904)	DRSC17824	13	inactive
LysRS (GeneID 31904)	DRSC25618	5	inactive
haf (GeneID 33339)	DRSC00381	3	inactive
CG12182 (GeneID 38324)	DRSC08142	4	inactive
Tb (GeneID 43212)	DRSC15815	8	inactive
Tb (GeneID 43212)	DRSC23554	10	inactive
CG15912 (GeneID 31385)	DRSC18105	11	inactive
CG15912 (GeneID 31385)	DRSC28275	7	inactive
5-HT1A (GeneID 37196)	DRSC05030	3	inactive
5-HT1A (GeneID 37196)	DRSC26404	5	inactive
bora (GeneID 40031)	DRSC10744	18	inactive
Mys45A (GeneID 35925)	DRSC07067	5	inactive
Mys45A (GeneID 35925)	DRSC25852	4	inactive
Orc5 (GeneID 34794)	DRSC03390	3	inactive
Orc5 (GeneID 34794)	DRSC28207	8	inactive
NHP2 (GeneID 44005)	DRSC11229	4	inactive
NHP2 (GeneID 44005)	DRSC24264	5	inactive
red (GeneID 41738)	DRSC23177	6	inactive
CG7024 (GeneID 31407)	DRSC18414	10	inactive
CG7024 (GeneID 31407)	DRSC27277	5	inactive
CG14762 (GeneID 35768)	DRSC05073	8	inactive
CG14762 (GeneID 35768)	DRSC06496	8	inactive
CG8613 (GeneID 36593)	DRSC07222	11	inactive
CG8613 (GeneID 36593)	DRSC28364	7	inactive
Acp98AB (retired record) (GeneID 44933)	DRSC21837	12	inactive
CG9917 (GeneID 32596)	DRSC20218	6	inactive
Pen (GeneID 34338)	DRSC03396	4	inactive
Pen (GeneID 34338)	DRSC39160	3	inactive
